PubChem BioAssay AID1259354 (Paczesny and Yang Labs, IUPUI and University of Michigan, 2018)
The whole screen tested about 78,000 compounds, of which about 1,800 (2.3%) were called active. The inconclusive results got no clear call from the source; some entries with a clear call stand among them for comparison. Cut-off read from the data, not from the text of the source: active = inhibition above about 30%; inconclusive = mostly about 10% to 28%; inactive = weaker than that.

Chains of the proteins cited; added tags and fusions are not shown. Lines headed by an entry give the natural chain unless they say otherwise; changes in a name come on top.
UniProt Q01638: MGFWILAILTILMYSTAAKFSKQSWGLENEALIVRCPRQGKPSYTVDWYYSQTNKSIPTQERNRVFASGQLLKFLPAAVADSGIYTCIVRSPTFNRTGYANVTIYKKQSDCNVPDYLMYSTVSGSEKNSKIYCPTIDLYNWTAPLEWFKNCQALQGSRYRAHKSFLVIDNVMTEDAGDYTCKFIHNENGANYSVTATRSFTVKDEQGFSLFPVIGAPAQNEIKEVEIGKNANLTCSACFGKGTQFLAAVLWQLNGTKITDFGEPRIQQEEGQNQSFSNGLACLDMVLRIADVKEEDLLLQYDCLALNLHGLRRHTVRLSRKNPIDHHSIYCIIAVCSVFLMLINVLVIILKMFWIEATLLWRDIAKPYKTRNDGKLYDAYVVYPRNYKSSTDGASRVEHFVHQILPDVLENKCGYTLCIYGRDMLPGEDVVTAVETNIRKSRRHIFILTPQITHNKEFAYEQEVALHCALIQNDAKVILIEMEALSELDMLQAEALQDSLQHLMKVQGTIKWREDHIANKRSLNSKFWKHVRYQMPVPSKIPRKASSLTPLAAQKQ

biological target: Interleukin-1 receptor-like 1 (Homo sapiens) (UniProt Q01638); assay: blocks human ST2 binding to IL-33, primary screen, biochemical, AlphaLISA (AID 1259354); details: AlphaLISA ST2-Fc/biotin-IL-33 interaction, 1 h; at 17 µM, stronger effect = higher value

Structure (SMILES)	inhibition
O=C(CN1CCCC1)N1CCCc2c1c(=O)oc1ccc(OCc3ccccc3)cc21	inconclusive: 15%
O=C(Nc1cccc([N+](=O)[O-])c1)c1ccc(Br)o1	inconclusive: 18%
CCCCn1c(CN2CCN(Cc3ccccc3)CC2)nc2c1c(=O)[nH]c(=O)n2C	inactive
CCc1[nH]nc(C(=O)N(CCOC)CC2CCN(Cc3ccccc3F)CC2)c1C	inconclusive: 12%
O=C(Cn1cc(-c2ccccn2)cn1)Nc1ccn(Cc2ccccc2)n1	inconclusive: 14%
CCc1c(C)sc(NC(=O)c2cc(-c3ccccc3O)on2)c1C#N	inconclusive: 11%
O=C(CN1C(=O)C2CCCCN2C(=O)c2ccccc21)NCc1ccc(F)cc1 (stereo unspecified)	active: 37%
COc1ccc(CNC(=O)C[C@@H]2O[C@H](Cn3cc(CN(C)Cc4ccccc4)nn3)[C@@H](O)[C@H]2O)cc1	inconclusive: 15%
CN1CCCN(Cc2ccc([N+](=O)[O-])s2)CC1	inconclusive: 17%
COCCn1c(CNC(=O)c2ccccc2Cl)nc2cccnc21	inconclusive: 11%
Cc1cc(C)nc(CN2CCC(=O)N(Cc3ccc(F)cc3)C(C(C)C)C2)n1 (stereo unspecified)	inconclusive: 14%
COc1ccccc1CCc1nc(CC2CCN(C)CC2)no1	inactive
CCOC(=O)c1c(NC(=O)C(C)Oc2ccc(Cl)cc2C)sc(C(N)=O)c1C (stereo unspecified)	inactive
CC(=O)N1CCc2c(nc(C)nc2N(C)C/C=C/c2ccccc2)C1	inconclusive: 20%
Cc1cccc(C)c1NC(=O)C(C)N (stereo unspecified)	inconclusive: 10%
CN(C)c1ccc(C(O)(c2ccc(N(C)C)cc2)c2ccc(N(C)C)cc2)cc1	active: 97%
CCN(CCn1cccn1)C(=O)c1cc(=O)c2ccccc2o1	inconclusive: 19%
CC(C)(C)c1[nH]nc2c1C(c1ccc(Br)s1)C(C#N)=C(N)O2 (stereo unspecified)	inconclusive: 13%
Cc1ccccc1S(=O)(=O)Nc1ccc2oc3c(c2c1)CC(C)CC3 (stereo unspecified)	inactive
C(=C\CSC1=NCCN1)/CSC1=NCCN1	inconclusive: 12%
COc1ccc(-c2cn(-c3ccc(F)cc3)c(=O)[nH]2)cc1	inconclusive: 17%
CC(C)C(=O)N1c2ccccc2NC2=C(C(=O)CCC2)C1c1ccc(Cl)cc1Cl (stereo unspecified)	inconclusive: 11%
CCc1nnc(NC(=O)CSc2nc(-c3cccs3)cc(C(F)(F)F)c2C#N)s1	inactive
COc1ccc(NC(=O)CN2CCN(Cc3ccc(Cl)cc3)S2(=O)=O)cc1Cl	inactive

Structure (SMILES)	inhibition
Cc1ccc(-n2c(SCC(=O)Nc3ccc([N+](=O)[O-])cc3)nc3c(c2=O)SCC3)cc1	active: 36%
COC(=O)C1=C(NC(=O)c2ccc(OC)cc2OC)CCS1	active: 32%
O=C1/C(=C/c2ccsc2)CS/C1=C\c1ccsc1	active: 39%
Fc1ccc(Nc2cccc3nccnc23)cc1	active: 49%
O=C(c1ccc2[nH]ccc2c1)N1CCOc2ccc(CN3CCN(CCO)CC3)cc2C1	inconclusive: 25%
CC(=O)Nc1ccc(S(=O)(=O)NCCSCc2ccc(Cl)cc2)cc1	inactive
COc1ncccc1-c1ccc(NC2CCCC2)nn1	inconclusive: 10%
CCOC(=O)c1c(NC(=O)c2nc3ccccc3s2)sc(C)c1C	inactive
CCN(CC)C(=O)Cn1cnc2sc(C(=O)N(C)Cc3ccccc3)c(C)c2c1=O	inconclusive: 10%
Cc1ccc(-n2nc3ccc(NC(=O)c4ccco4)cc3n2)cc1Cl	inconclusive: 23%
Cc1ccc(Nc2ncnc3c2cnn3-c2cccc(C)c2)cc1	inactive
Cc1ccc(OCC(=O)Nc2cc(N3CCCS3(=O)=O)ccc2C)cc1	inconclusive: 14%
CCc1ccc(-c2nc(CSCC(=O)N3CCc4ccccc43)c(C)o2)cc1	inconclusive: 15%
Cc1ccc2nc(SCC(=O)N3CCc4c(c(C(=O)NC5CCCC5)nn4CC(C)C)C3)[nH]c2c1	inactive
COc1ccc(S(=O)(=O)N2C[C@@H]3C[C@H](C2)c2c(NC(=O)c4cncnc4)ccc(=O)n2C3)cc1	inconclusive: 20%
CC(C)=CC(=O)N1CCC2(CC1)CNC(=O)C2	inactive
O=C1c2ccc([N+](=O)[O-])cc2C(=O)N1CNc1cccc(F)c1	inconclusive: 12%
Cc1noc(C)c1CC(=O)NCc1cccnc1N1CCc2ccccc2C1	inconclusive: 11%
O=C(c1ccc(F)cc1)n1nnc2ccccc21	inconclusive: 11%
COc1cc(CN2CCCC2)cc(OC)c1OC	inconclusive: 29%
CC1=C[C@@H](CNS(C)(=O)=O)[C@H](C(C)C)C[C@H]1CC(=O)N1CCOCC1	inconclusive: 16%
O=C(CN1CCN(Cc2ccc(Cl)cc2)S1(=O)=O)Nc1ccc2c(c1)OCCO2	inactive
COc1ccc(C(=O)Nc2cccc(C(=O)O)c2)cc1	inactive
CC(C)CNC(=O)NCCc1nc2cccnc2n1Cc1ccccc1	inactive

Structure (SMILES)	inhibition
Cc1oc(-c2cccs2)nc1-c1c(-c2ccccc2)ncn1CCCO	inconclusive: 17%
COc1ccc(C2=NN(C(=O)CCC(=O)O)C(c3ccccc3Cl)C2)cc1OC (stereo unspecified)	inactive
CC(C)c1[nH]nc2c1C1(CCN(Cc3ccccc3)CC1)C(C#N)=C(N)O2	active: 31%
O=C(Cn1nnnc1CN1CCCC1)NC1Cc2ccccc2C1	inactive
CC(Cc1c[nH]c2ccccc12)Nc1ccc2ccccc2n1 (stereo unspecified)	inconclusive: 14%
Cc1ccc(C)c(OCCNC(=O)C2CCOC2)c1 (stereo unspecified)	inconclusive: 17%
O=C(N[C@H]1CO[C@H]2[C@@H]1OC[C@H]2O)C1CC1	inconclusive: 14%
O=C(CCS(=O)(=O)c1cccc2nsnc12)Nc1cccc(F)c1	inactive
Clc1c(CSc2nncn2-c2ccccc2)nc2ncccn12	inconclusive: 10%
CCOC(=O)c1c(NC(=O)COc2ccc(C(C)(C)C)cc2)sc2c1CCC2	inactive
O=C(CCc1ccccc1)Nc1cccc(NC(=O)c2cccc(=O)[nH]2)c1	inconclusive: 12%
CN1C(=O)C(=Cc2cn(CCOc3ccccc3Cl)c3ccccc23)C(=O)N(C)C1=O	inactive
O=[N+]([O-])c1cccc(-c2noc([C@@H]3C[C@@H](O)CN3Cc3ccc(Cl)cc3)n2)c1	inactive
COc1ccc(-c2nn(-c3ccccc3)cc2CN2CCC(OC)CC2)c(F)c1	inactive
CC(C)CSc1nnc2[nH]c(=O)cc(N)n12	inconclusive: 18%
Cc1ccc(F)c(CN(CCC(N)=O)C(C)C)c1F	inactive
CN(CCc1ccccc1)[C@@H]1[C@H](O)[C@H](CO)O[C@@H]1CNC(=O)Nc1ccc(OC(F)(F)F)cc1	inconclusive: 11%
Cn1c(/C=C/c2ccc(Cl)cc2Cl)c([N+](=O)[O-])c(=O)n(C)c1=O	inactive
C=C(C(=O)O[C@H]1C/C(C)=C/CC/C(CO)=C/[C@H]2OC(=O)C(=C)[C@H]12)C(O)CO (stereo partly specified)	inconclusive: 13%
COc1ccc(C2CC(=O)C3=C(C2)Nc2ccccc2NC3c2cccc([N+](=O)[O-])c2)cc1OC (stereo unspecified)	inconclusive: 14%
CCN1CCN(C(=O)c2c[nH]n3c(=O)c(Cc4cccc(C)c4)c(C)nc23)CC1	inconclusive: 17%
Cc1ccc(CNC(=O)CCCn2c(=O)c3sccc3n(Cc3ccccc3F)c2=O)cc1	inconclusive: 20%
Cn1c(=O)c2nc3ccccc3nc2n(C)c1=O	inconclusive: 20%
C=CCn1cc(CN2CCC2c2cccc(OC)c2)c(C)n1 (stereo unspecified)	inconclusive: 10%

6 structures already listed, arranged by SMILES length, smallest number first:
Structure (SMILES)	inhibition
Cc1ccc(C)c(OCCNC(=O)C2CCOC2)c1 (stereo unspecified)	inconclusive: 17%
Cc1ccc(F)c(CN(CCC(N)=O)C(C)C)c1F	inactive
C=CCn1cc(CN2CCC2c2cccc(OC)c2)c(C)n1 (stereo unspecified)	inconclusive: 10%
Cc1oc(-c2cccs2)nc1-c1c(-c2ccccc2)ncn1CCCO	inconclusive: 17%
CCOC(=O)c1c(NC(=O)COc2ccc(C(C)(C)C)cc2)sc2c1CCC2	inactive
CN1C(=O)C(=Cc2cn(CCOc3ccccc3Cl)c3ccccc23)C(=O)N(C)C1=O	inactive

Next structures

Structure (SMILES)	inhibition
Cc1ccc(Cn2c(CNC(=O)c3ccccc3Cl)nc3cccnc32)cc1	inconclusive: 13%
CCOC(=O)C1=NN=C2C(=O)N(c3ccc(C)cc3C)C(=O)C12 (stereo unspecified)	inconclusive: 11%
O=C(NCc1cccnc1)c1ccc(N2CCC(NCc3cccc(C(F)(F)F)c3)CC2)cc1	inactive
COC(=O)C1=C(NC(=O)c2cccs2)CCS1	inconclusive: 20%
CCc1nc(N2CCCC2)c(C#N)c2c1COC(C)(C)C2	inconclusive: 19%
Cc1nccn1-c1ccc(CNC(=O)C2CCC(=O)N(Cc3ccccc3F)C2)cc1 (stereo unspecified)	inconclusive: 13%
O=C1c2ccccc2C(=O)N1C1c2ccccc2Oc2ccccc21	inactive
COC(=O)C(CCSC)NC(=O)c1ccc2nc(C3CCCCC3)oc2c1 (stereo unspecified)	inconclusive: 12%
c1ccc(N2CCN(Cc3ccsc3)CC2)nc1	inconclusive: 13%
N#Cc1ccc(CSc2nnc3sc4ccccc4n23)cc1	inactive
CC(=O)NS(=O)(=O)c1ccc(NC(=O)CC(C)C)cc1	inactive
COc1ccc(OC)c(NC(=O)CCCN2C(=O)c3ccccc3C2=O)c1	inconclusive: 14%
CC(=O)c1ccc(NC(=O)N2CCN(C(=O)CN)[C@@H](C(=O)N[C@H]3CCCNC3=O)C2)cc1	inactive
C=CCN1C(=Nc2cccnc2)SCC1(O)c1ccc(OC)cc1 (stereo unspecified)	active: 61%
O=C1S/C(=C\c2ccc3c(c2)OCO3)C(=O)N1Cc1ccccc1F	inconclusive: 28%
Cn1cc(C(=O)NCC2COc3ccccc3O2)c2c3ccccc3n(C)c2c1=O (stereo unspecified)	inactive
CN(Cc1n[nH]c2c1CCCCC2)S(=O)(=O)NCc1ccccc1	inconclusive: 21%
COc1ccc(-c2csc(/C(C#N)=C\c3ccc(Br)cc3)n2)cc1	inconclusive: 27%
O=c1[nH]c2ccc(S(=O)(=O)Nc3ccc(Cl)cc3F)cc2s1	inactive
Cc1nc2c(C(=O)NCc3ccc4c(c3)OCO4)cnn2c(C)c1Cc1ccc(F)cc1	inactive
COc1c(Br)cc(Br)cc1/C=C1\C(=O)N(c2ccccc2)N=C1C	inactive
O=C(Nc1nc2ccc(Br)cc2s1)c1ccccc1F	inconclusive: 10%
O=S(=O)(Nc1ccc(Br)cc1)c1ccc(F)cc1	inactive
Cc1cccc(C)c1NC(=O)c1cccc(OCc2ccccc2)c1	inactive
